{"source": "patent US6107271A", "about": "“Neuroactive peptides” (NYXIS Neuro Therapies, Inc., priority 1998, dated 2000)", "key": {"[1]": {"target": "T1, NMDA receptor complex, glycine co-agonist site (Rattus norvegicus, UniProt P35439)", "T1 construct": "Crude synaptic membranes used in the assay were prepared using rat hippocampal tissue; from tissue; host or cells: rat hippocampus, crude synaptic membranes", "type": "biochemical", "conditions": "for overall effect / biological activity in [3H]MK-801 binding assay: all concentrations tested, 10^-9 to 10^-5 M", "protocol": "Polypeptides or amino acid compositions of the instant invention were tested for the ability to mimic the glycine co-agonist effect on the NMDA receptor using a previously validated [^3 H]MK-801 binding assay. This functional assay takes advantage of the fact that increased [^3 H]MK-801 binding by NMDA receptors can only occur upon receptor-binding channel opening. This is because the MK-801 binding site is located inside the ionophore of the NMDA receptor complex, and is thus only accessible upon the opening of the receptor complex channel. Thus increased binding of [^3 H]MK-801 is directly correlated with increased channel opening, in this assay, triggered by the binding of the polypeptides or amino acid compositions of the instant invention to the glycine co-agonist binding site.\nTo further refine the assay, a selective antagonist of the glycine binding site of the NMDA receptor-channel complex is added to the assay. The normal action of 7-chlorokynurenic acid is to selectively bind to the glycine site, and inhibit NMDA receptor channel opening, and thus inhibit the binding of [^3 H]MK-801 to the NMDA receptor complex.\nCrude synaptic membranes used in the assay were prepared using rat hippocampal tissue (male Sprague-Dawly rats) and extensively washed using the procedures described previously (Haring et al., 1991, J. Neurochem. 57:323-331). Briefly, tissue which has been stored at -80-- C is homogenized in ice cold 5 mM Tris (pH 7.4) using a Brinkman Polytron® and then pelleted by centrifugation at 48,000 g for 20 minutes. The resulting supernatant is discarded, and the membranes washed three times in cold buffer. Pellets are then resuspended in 5 mM EDTA, 15 mM Tris (pH 7.4), and incubated for one hour at 37-- C. The membrane suspensions are then pelleted by centrifugation at 48,000g for 20 min and stored at -80-- C until use in the assay.\nFrozen pellets are thawed at room temperature and washed three times by resuspension in 5 mM Tris (pH 7.4) and centrifugation. Final pellets are suspended at concentrations of 2 to 3 mg/ml in 5 mM Tris buffer (pH 7.4). Binding reactions are initiated by the addition of 200-- g of freshly prepared membranes to reaction mixtures (about 1 ml final volume) containing 1 nM [^3 H]MK-801 at 25-- C in the presence of a range of peptide concentrations and 60-- M 7-chlorokynurenic acid. Non-specific binding is determined using 10-- M unlabelled MK-801. Binding reactions are terminated by filtration through a Brandel 24-well cell harvester onto Whatman GF/B glass filters that have been presoaked in 0.25% polyethyleneimine for 30 minutes."}, "[2]": {"system": "Adult male Sprague-Dawley rats", "experiment": "Behavioral NMDA specific activity assay, Morris water maze", "type": "in vivo, rat"}}, "note": "Where two headings read alike, the source gives them in different places. Part of at least one peptide drawing is inferred or uncertain, most often the ends. Some entries share one result that the patent states for a list of compounds. Residues, ends and D or L forms follow the SMILES beside them. No end group written: not given here."}
{"compound": "C[C@@H](O)[C@H](NC(=O)[C@@H]1CCCN1C(=O)[C@@H]1CCCN1)C(=O)O", "note": "[NT-15, Pro-Pro-Thr] (H-Pro-Pro-Thr-OH)", "values": [{"measurement": "overall effect / biological activity in [3H]MK-801 binding assay", "setting": "[1]", "value": "without effect at any concentration tested"}, {"measurement": "overall effect / biological activity in [3H]MK-801 binding assay", "setting": "[1]; listed as peptide NT-15", "value": "unlikely that any of these peptides have meaningful biological activity"}]}
{"compound": "QQHYSTPPT [NT-3]", "values": [{"measurement": "binding to the glycine site of the NMDA receptor (FIG. 1C)", "setting": "[1]; % control binding in the presence of 7-chlorokynurenic acid vs concentration", "value": "clearly binds to the glycine site of the NMDA receptor"}]}
{"compound": "C[C@@H](O)[C@H](N)C(=O)N1CCC[C@H]1C(=O)N[C@H](C(=O)O)[C@@H](C)O", "note": "[NT-17, Thr-Pro-Thr] (H-Thr-Pro-Thr-OH)", "values": [{"measurement": "overall effect / biological activity in [3H]MK-801 binding assay", "setting": "[1]", "value": "unlikely that any of these peptides have meaningful biological activity"}, {"measurement": "most efficacious concentration in [3H]MK-801 binding assay", "setting": "[1]; concentrations tested 10^-9 to 10^-5 M", "value": "10^-5 M"}]}
{"compound": "C[C@@H](O)[C@H](N)C(=O)N1CCC[C@H]1C(=O)N1CCC[C@H]1C(=O)N[C@H](C(=O)O)[C@@H](C)O", "note": "[NT-13, Thr-Pro-Pro-Thr] (H-TPPT-OH)", "values": [{"measurement": "Path Length to target (FIG. 4B)", "setting": "[2]; i.c.v. infusion", "value": "about 300 cm"}, {"measurement": "cognitive effect in the Morris water maze task", "setting": "[2]; i.c.v. infusion", "value": "produced some cognitive enhancement"}, {"measurement": "Escape Latency (FIG. 4A)", "setting": "[2]; i.c.v. infusion 15 min before training", "value": "about 10.75 seconds"}, {"measurement": "Distance to Target, average distance during probe trial (FIG. 4C)", "setting": "[2]; i.c.v. infusion, probe trial on Day 8 of training", "value": "about 31 cm"}]}
